Data from publication doi:10.1101/605923.
Where two headings read alike, the source gives them in different places. Results are given in words; binding and its absence hold for the method and conditions named. For some of these results: In cells and extracts the contact can be indirect. Some entries that bind do so weakly or less than the wild type. Tags and fused reporters may be left off the sequences shown.

T1: RECEPTOR-LIKE PROTEIN 44 (RLP44) fused to RFP, expressed from 35S:RLP44-RFP in plants (Arabidopsis) (UniProt Q9M2Y3)
T1 sequence: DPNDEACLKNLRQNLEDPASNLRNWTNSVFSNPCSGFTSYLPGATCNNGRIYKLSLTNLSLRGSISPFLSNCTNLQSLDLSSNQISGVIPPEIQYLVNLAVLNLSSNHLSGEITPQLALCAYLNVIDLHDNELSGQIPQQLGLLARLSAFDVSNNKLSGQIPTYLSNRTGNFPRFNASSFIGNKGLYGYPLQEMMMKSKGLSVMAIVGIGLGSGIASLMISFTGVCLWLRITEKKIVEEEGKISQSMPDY

T2: RLP44, split-ubiquitin fusion in yeast (Arabidopsis) (UniProt Q9M2Y3)
T2 sequence: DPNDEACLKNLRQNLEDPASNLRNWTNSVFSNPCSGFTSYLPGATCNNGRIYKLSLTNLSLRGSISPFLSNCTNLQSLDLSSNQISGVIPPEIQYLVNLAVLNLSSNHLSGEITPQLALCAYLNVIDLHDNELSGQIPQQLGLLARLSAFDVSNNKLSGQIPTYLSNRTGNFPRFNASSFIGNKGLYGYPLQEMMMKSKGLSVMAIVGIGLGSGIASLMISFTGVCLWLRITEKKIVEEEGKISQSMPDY

T3: BRI1-ASSOCIATED RECEPTOR KINASE 1 (BAK1), split-ubiquitin fusion in yeast (Arabidopsis) (UniProt Q94F62)
T3 sequence: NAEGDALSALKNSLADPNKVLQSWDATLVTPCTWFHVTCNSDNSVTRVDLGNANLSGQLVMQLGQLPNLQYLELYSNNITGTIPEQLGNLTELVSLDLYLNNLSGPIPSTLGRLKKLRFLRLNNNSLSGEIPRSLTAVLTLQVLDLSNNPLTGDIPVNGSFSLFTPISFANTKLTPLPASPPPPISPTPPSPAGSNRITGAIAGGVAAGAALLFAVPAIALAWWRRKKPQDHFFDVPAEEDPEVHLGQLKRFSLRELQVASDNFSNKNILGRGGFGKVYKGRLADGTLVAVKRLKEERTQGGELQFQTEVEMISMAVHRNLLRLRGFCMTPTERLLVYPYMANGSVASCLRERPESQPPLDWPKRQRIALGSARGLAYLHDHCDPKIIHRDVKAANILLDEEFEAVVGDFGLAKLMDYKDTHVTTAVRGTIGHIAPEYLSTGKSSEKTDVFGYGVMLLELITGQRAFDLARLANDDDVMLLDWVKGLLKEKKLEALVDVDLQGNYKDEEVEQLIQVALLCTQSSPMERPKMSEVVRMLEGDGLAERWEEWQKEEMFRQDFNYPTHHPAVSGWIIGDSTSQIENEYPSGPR


What was measured:
[1] = target: T1, RECEPTOR-LIKE PROTEIN 44 (RLP44) fused to RFP, expressed from 35S:RLP44-RFP in plants (Arabidopsis); assay: co-IP
[2] = target: T2, RLP44, split-ubiquitin fusion in yeast (Arabidopsis); assay: two-hybrid
[3] = target: T3, BRI1-ASSOCIATED RECEPTOR KINASE 1 (BAK1), split-ubiquitin fusion in yeast (Arabidopsis); assay: two-hybrid
[4] = target: T2, RLP44, split-ubiquitin fusion in yeast (Arabidopsis); assay: two-hybrid; remark: listed apart in the source

Molecule | binding [1] | binding [2] | also measured
BRASSINOSTEROID … 1 (BRI1), wild type, in Col-0 plants (from UniProt O22476 24-1196) (receptor) | binds |  | 
BRI1, wild type, split-ubiquitin fusion in yeast (from UniProt O22476 24-1196) (receptor) |  | binds | 
BRI1cnu3 (BRI1 R769W), Nub fusion in yeast (from UniProt O22476 24-1196) (receptor) |  | binds | 
BRI1cnu4 (BRI1 G746S), Nub fusion in yeast (from UniProt O22476 24-1196) (receptor) |  | binds | binding [3]: binds
BRI1cnu4 (BRI1 G746S), in bri1cnu4 mutant plants (from UniProt O22476 24-1196) (receptor) | binds |  | 
BRI1-ASSOCIATED RECEPTOR KINASE 1 (BAK1), split-ubiquitin fusion in yeast (receptor, UniProt Q94F62 26-615) NAEGDALSALKNSLADPNKVLQSWDATLVTPCTWFHVTCNSDNSVTRVDLGNANLSGQLVMQLGQLPNLQYLELYSNNITGTIPEQLGNLTELVSLDLYLNNLSGPIPSTLGRLKKLRFLRLNNNSLSGEIPRSLTAVLTLQVLDLSNNPLTGDIPVNGSFSLFTPISFANTKLTPLPASPPPPISPTPPSPAGSNRITGAIAGGVAAGAALLFAVPAIALAWWRRKKPQDHFFDVPAEEDPEVHLGQLKRFSLRELQVASDNFSNKNILGRGGFGKVYKGRLADGTLVAVKRLKEERTQGGELQFQTEVEMISMAVHRNLLRLRGFCMTPTERLLVYPYMANGSVASCLRERPESQPPLDWPKRQRIALGSARGLAYLHDHCDPKIIHRDVKAANILLDEEFEAVVGDFGLAKLMDYKDTHVTTAVRGTIGHIAPEYLSTGKSSEKTDVFGYGVMLLELITGQRAFDLARLANDDDVMLLDWVKGLLKEKKLEALVDVDLQGNYKDEEVEQLIQVALLCTQSSPMERPKMSEVVRMLEGDGLAERWEEWQKEEMFRQDFNYPTHHPAVSGWIIGDSTSQIENEYPSGPR |  |  | binding [4]: binds
